No constants are given. Whether binding was seen depends on the method and setting. Binding seen in cells or lysates may run through a third protein. Some entries that bind do so weakly or less than the wild type.
What was measured:
[1] = target: Cyclin-dependent kinase 7 (human (endogenous in MDA-MB-435)) (UniProt P50613); assay: co-IP; endogenous proteins of MDA-MB-435 cells; whole cell lysates or cytosolic and nuclear fractions in RIPA buffer (5 mM Tris-HCl pH 7.4, 150 mM NaCl, 1% NP-40, 1 mM EDTA, 1% sodium deoxycholate); 1 mg protein with specific primary antibodies and Protein G magnetic beads, Western blot; cells treated with CPYPP (10 uM, 6-24 h), CsA, curcumin or ML346, with or without THZ1, LY2857785 or PKRi pretreatment; which protein was precipitated not given
[2] = target: Cyclin-dependent kinase 9 (human (endogenous in MDA-MB-435)) (UniProt P50750); assay: as above

The chains behind the UniProt entries cited, without tags or fusion partners.
UniProt P50613: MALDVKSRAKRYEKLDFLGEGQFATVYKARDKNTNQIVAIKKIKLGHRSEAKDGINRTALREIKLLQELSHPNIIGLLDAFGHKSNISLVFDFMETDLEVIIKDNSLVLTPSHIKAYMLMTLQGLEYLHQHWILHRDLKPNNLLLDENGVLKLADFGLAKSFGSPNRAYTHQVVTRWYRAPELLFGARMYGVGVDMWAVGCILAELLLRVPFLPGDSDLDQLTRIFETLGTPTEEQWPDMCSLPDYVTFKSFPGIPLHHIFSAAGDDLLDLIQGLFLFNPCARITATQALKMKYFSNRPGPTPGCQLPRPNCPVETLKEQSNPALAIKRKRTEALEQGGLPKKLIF
UniProt P50750: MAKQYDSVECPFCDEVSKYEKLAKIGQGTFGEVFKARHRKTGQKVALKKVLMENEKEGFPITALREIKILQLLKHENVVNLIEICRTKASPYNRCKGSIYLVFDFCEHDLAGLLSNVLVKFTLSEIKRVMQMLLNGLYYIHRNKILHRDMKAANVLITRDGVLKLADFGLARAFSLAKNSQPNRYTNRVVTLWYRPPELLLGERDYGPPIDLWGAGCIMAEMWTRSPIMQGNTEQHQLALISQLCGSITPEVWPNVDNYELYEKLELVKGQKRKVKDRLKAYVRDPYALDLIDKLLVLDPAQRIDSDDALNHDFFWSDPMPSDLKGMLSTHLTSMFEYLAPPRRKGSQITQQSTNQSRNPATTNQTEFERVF
UniProt P04792: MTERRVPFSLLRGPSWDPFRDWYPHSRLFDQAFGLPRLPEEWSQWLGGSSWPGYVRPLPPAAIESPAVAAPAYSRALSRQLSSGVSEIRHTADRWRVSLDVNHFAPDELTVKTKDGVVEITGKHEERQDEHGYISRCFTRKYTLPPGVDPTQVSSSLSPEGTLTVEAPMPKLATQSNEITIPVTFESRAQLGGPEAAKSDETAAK
UniProt Q92598: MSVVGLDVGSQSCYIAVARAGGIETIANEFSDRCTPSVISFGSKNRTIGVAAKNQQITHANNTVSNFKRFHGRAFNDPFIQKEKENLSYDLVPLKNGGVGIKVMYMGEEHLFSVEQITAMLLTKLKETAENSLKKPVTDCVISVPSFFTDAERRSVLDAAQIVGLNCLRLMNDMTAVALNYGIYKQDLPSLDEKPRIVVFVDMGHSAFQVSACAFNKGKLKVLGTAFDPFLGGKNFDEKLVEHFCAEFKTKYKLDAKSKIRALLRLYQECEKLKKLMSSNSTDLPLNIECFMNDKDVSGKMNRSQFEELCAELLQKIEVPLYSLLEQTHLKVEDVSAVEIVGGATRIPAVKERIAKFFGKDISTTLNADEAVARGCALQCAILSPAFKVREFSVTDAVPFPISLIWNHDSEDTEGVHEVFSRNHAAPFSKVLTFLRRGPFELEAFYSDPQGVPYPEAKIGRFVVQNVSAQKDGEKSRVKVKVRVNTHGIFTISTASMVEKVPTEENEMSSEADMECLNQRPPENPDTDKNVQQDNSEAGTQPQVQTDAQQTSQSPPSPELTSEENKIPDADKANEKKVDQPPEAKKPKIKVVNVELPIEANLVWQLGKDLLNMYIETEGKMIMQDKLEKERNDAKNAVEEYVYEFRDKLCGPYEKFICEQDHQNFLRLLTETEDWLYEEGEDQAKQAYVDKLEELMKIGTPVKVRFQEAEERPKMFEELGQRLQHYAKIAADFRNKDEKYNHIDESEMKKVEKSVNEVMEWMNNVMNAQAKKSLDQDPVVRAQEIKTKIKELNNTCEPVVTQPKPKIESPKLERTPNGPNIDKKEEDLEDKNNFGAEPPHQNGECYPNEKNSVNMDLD
UniProt P19525: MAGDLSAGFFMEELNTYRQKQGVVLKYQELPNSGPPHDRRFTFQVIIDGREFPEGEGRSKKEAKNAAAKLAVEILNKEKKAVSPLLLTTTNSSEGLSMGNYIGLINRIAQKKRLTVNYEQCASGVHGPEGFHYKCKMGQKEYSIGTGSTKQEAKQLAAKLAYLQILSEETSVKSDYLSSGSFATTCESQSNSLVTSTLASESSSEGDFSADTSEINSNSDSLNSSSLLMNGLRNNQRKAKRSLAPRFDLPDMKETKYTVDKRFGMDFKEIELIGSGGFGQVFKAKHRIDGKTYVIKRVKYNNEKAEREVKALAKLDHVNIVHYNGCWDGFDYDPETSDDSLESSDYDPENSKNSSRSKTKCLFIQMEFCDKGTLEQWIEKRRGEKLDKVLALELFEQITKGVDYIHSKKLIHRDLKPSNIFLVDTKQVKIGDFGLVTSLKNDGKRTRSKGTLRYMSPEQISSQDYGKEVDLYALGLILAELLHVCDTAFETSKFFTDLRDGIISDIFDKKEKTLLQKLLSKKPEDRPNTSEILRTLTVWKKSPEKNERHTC

For HSP27 (from UniProt P04792 1-205), the binding [1] was “binds” and the binding [2] was “binds”.

For HSP105 (from UniProt Q92598 1-858), the binding [1] was “binds” and the binding [2] was “binds”.

For “Protein kinase R (from UniProt P19525 1-551) (enzyme)”, the binding [1] was “binds” and the binding [2] was “binds”.

— paper PMC11163730
